The values below come from patent US20230203114A1.

No constants are given. Whether binding was seen depends on the method and setting. A result given as binding can be weak or reduced; the word gives no strength.

This experiment addresses HLA-A*02:01 (human). Briefly: UV-ligand exchange + anti-b2m ELISA; peptide exchange yield grade (+ >=10%, ++ >=20%, +++ >=50%, ++++ >=75%).
With FLAELPGSLSL [… (SEQ ID NO: 6)], the binding entry is “binds”.
As for YLFREPATI [… (SEQ ID NO: 178)], the binding result was “binds”.
Consider WLFDDGGLTL [… (SEQ ID NO: 5)], for which the binding result is listed as “binds”.
Take VLFTDEGVPKFL [… (SEQ ID NO: 56)]: the binding result is given as “binds”.
For GLDDRYSLV [… (SEQ ID NO: 46)] the value was “binds”; for ALWEKNTHL [… (SEQ ID NO: 33)], “binds”; for VLDGVLMEL [… (SEQ ID NO: 24)], “binds”.
For FLDANGHFV [… (SEQ ID NO: 23)] the value was “binds”; for ALSNVIHKV [… (SEQ ID NO: 40)], “binds”; for YLAPENGYL [… (SEQ ID NO: 62)], “binds”.
The value for GLHNVVYGI [… (SEQ ID NO: 187)] was “binds”; that for ILDDSFKLL [… (SEQ ID NO: 41)] was “binds”; that for AMADKMDMSL [… (SEQ ID NO: 58)] was “binds”.
In the case of VLYTGVVRV [… (SEQ ID NO: 185)], the binding entry is “binds”.
On to KMSEKILLL [… (SEQ ID NO: 186)], for which the binding entry is “binds”.
Regarding RTLDKVLEV [… (SEQ ID NO: 176)], the binding result is on record as “binds”.
The value for QLFSEIHNL [… (SEQ ID NO: 191)] was “binds”; that for RLQETEGMVAV [… (SEQ ID NO: 171)] was “binds”; that for FLSSLKGGLL [… (SEQ ID NO: 18)] was “binds”.
For the molecule FLVDGPRVQL [… (SEQ ID NO: 188)], the binding result was “binds”.
For TLQEVVTGV [… (SEQ ID NO: 183)] the value was “binds”; for ALLNGEYLLAA [… (SEQ ID NO: 54)], “binds”; for ILLDDNMQIRL [… (SEQ ID NO: 174)], “binds”.
The value for ALTEIQEFI [… (SEQ ID NO: 28)] was “binds”; that for KLYERCEVV [… (SEQ ID NO: 47)] was “binds”; that for VLIDHRWVL [… (SEQ ID NO: 21)] was “binds”.
The value for GLASKENFSNVSL [… (SEQ ID NO: 26)] was “binds”; that for ALLQGAIESV [… (SEQ ID NO: 177)] was “binds”.
Take KLGDLMVLL [… (SEQ ID NO: 173)]: the binding result was “binds”.
As to QMLDVAIRV [… (SEQ ID NO: 29)], the binding entry is “binds”.
The value for TLDAAQPRV [… (SEQ ID NO: 43)] was “binds”.
Regarding LLYGKYVSV [… (SEQ ID NO: 31)], the binding entry is “binds”.
The value for KLLKLFQGV [… (SEQ ID NO: 61)] was “binds”; that for YLKDGDVML [… (SEQ ID NO: 20)] was “binds”; that for ALLPRYFFL [… (SEQ ID NO: 2)] was “binds”.
With ILLEKSVSV [… (SEQ ID NO: 34)], the binding result is reported as “binds”.
For GLIRFPLMTI [… (SEQ ID NO: 168)], the binding entry is on record as “binds”.
Consider RLAELTVDEFL [… (SEQ ID NO: 4)], for which the binding result is given as “binds”.
For KLLDLTVRI [… (SEQ ID NO: 35)] the value was “binds”; for FLDASDPAL [… (SEQ ID NO: 48)], “binds”; for SLLDENNVSSYL [… (SEQ ID NO: 184)], “binds”.
For AMAEMVLQV [… (SEQ ID NO: 190)] the value was “binds”; for AISEVIGKITA [… (SEQ ID NO: 189)], “binds”; for KLNTETFGV [… (SEQ ID NO: 32)], “binds”.
For the molecule ALAAARVEL [… (SEQ ID NO: 17)], the binding result is listed as “binds”.
As for LLLDTVTMQV [… (SEQ ID NO: 172)], the binding result is “binds”.
For RLYTKLLNEA [… (SEQ ID NO: 19)] the value was “binds”; for LLADEDSSYL [… (SEQ ID NO: 27)], “binds”; for NLLEKENYL [… (SEQ ID NO: 57)], “binds”.
For GLIDEVMVL [… (SEQ ID NO: 22)] the value was “binds”; for SLESKLTSV [… (SEQ ID NO: 44)], “binds”.
The value for SILDDSFKL [… (SEQ ID NO: 42)] was “binds”.
For SLAPTPVSA [… (SEQ ID NO: 38)], the binding result is “binds”.
For VLDEDEPRFL [… (SEQ ID NO: 60)] the value was “binds”; for TLLGGKEAQALGV [… (SEQ ID NO: 175)], “binds”; for ALAGGITMV [… (SEQ ID NO: 170)], “binds”.
The value for RLIPDTLYSV [… (SEQ ID NO: 3)] was “binds”; that for GLSSAYGGL [… (SEQ ID NO: 30)] was “binds”.
The value for GLLESPSIFNFTA [… (SEQ ID NO: 36)] was “binds”; that for ALAELLHGA [… (SEQ ID NO: 45)] was “binds”.
YLAHFIEGL [… (SEQ ID NO: 169)]: the binding entry is recorded as “binds”.
For NLFDLGGQYLRV [… (SEQ ID NO: 181)], the binding result was “binds”.
Take SLNKWIFTV [… (SEQ ID NO: 182)]: the binding entry is listed as “binds”.
For QVWEIQHTV [… (SEQ ID NO: 51)] the value was “binds”; for FLLGSEIKL [… (SEQ ID NO: 53)], “binds”; for GLFAGLGGAGA [… (SEQ ID NO: 37)], “binds”.
For TLMAEMHVV [… (SEQ ID NO: 50)] the value was “binds”; for ALDSSNSMQTI [… (SEQ ID NO: 52)], “binds”; for LLTDNVVKL [… (SEQ ID NO: 59)], “binds”.
